Test results: article PMC5113954, “Characterization of the Sucrose Phosphate Phosphatase (SPP) Isoforms from Arabidopsis thaliana and Role of the S6PPc Domain in Dimerization” (PLoS ONE, 2016)
No constants are given. Whether binding was seen depends on the method and setting. For some assays here: In cells and extracts the contact can be indirect. Some results given as binding are weak or reduced against the parent protein; the word gives no strength. For some assays here: Tags and fused reporters may be left off the sequences shown. Each block holds one molecule with its values, some of them ahead of it.

Protein sequences, listed by entry. Tags and fused reporters are not part of them.
UniProt Q9SJ66: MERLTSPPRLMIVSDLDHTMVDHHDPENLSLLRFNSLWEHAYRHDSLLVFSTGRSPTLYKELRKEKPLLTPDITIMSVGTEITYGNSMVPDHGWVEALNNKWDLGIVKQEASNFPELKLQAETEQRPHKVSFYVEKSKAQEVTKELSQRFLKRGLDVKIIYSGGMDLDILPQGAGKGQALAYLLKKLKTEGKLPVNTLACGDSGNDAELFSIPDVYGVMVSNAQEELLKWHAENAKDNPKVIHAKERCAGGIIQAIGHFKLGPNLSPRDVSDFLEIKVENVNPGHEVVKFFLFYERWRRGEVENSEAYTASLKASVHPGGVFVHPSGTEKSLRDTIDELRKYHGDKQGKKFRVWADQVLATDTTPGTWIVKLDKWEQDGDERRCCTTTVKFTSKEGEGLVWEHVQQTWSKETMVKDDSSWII

How the values were obtained:
[1] = biological target: Arabidopsis SPP2 fused to the N-terminal or the C-terminal part of YFP (YFN-SPP2 and YFC-SPP2) for BiFC (Arabidopsis thaliana) (UniProt Q9SJ66); assay: split reporter; BiFC with YFN and YFC fusions (pYFN43, pYFC43) in agroinfiltrated Nicotiana benthamiana leaf cells; confocal microscopy, excitation 514 nm
[2] = biological target: Sucrose-phosphate phosphatase of Synechocystis sp. PCC 6803, His6-SynSPP (pQE-80L) (Synechocystis sp. PCC 6803) (UniProt P74325); assay: SEC; gel filtration of the purified His-tagged proteins; eluted fractions immunoblotted with anti-His antibodies (Fig 7, S1 Fig); both purified

- binding [1]: binds
Molecule: Arabidopsis SPP2 fused to the N-terminal or the C-terminal part of YFP (YFN-SPP2 and YFC-SPP2) for BiFC (from UniProt Q9SJ66 1-422) (enzyme)

- binding [2]: no binding
B1: Sucrose-phosphate phosphatase of Synechocystis sp. PCC 6803, His6-SynSPP (pQE-80L) (enzyme, UniProt P74325 1-244)
chain: MRQLLLISDLDNTWVGDQQALEHLQEYLGDRRGNFYLAYATGRSYHSARELQKQVGLMEPDYWLTAVGSEIYHPEGLDQHWADYLSEHWQRDILQAIADGFEALKPQSPLEQNPWKISYHLDPQACPTVIDQLTEMLKETGIPVQVIFSSGKDVDLLPQRSNKGNATQYLQQHLAMEPSQTLVCGDSGNDIGLFETSARGVIVRNAQPELLHWYDQWGDSRHYRAQSSHAGAILEAIAHFDFLS
